Laboratory results: article PMC12040169 (PLOS Biology, 2025)
The list shows a part of the results.

The molecules below were run on T1, CTL2-GFP (C. trachomatis L2/434/Bu, GFP-expressing). Conditions: bulk GFP, single well; 28.5 h, 10 µM; inhibitor.
T1 construct: L2/434/Bu, GFP-expressing
Design: species or system HeLa; Intracellular C. trachomatis growth in HeLa cells, bulk GFP fluorescence relative to DMSO

Row | Compound | % of control remaining [%]
1 | N#Cc1nc(COc2ccc(Br)cc2)oc1NC1CC1 [CBK266470] | 129.213
2 | CN1CCN(c2nc(-c3ccco3)cn3ccnc23)CC1 [CBK038045] | 135.764
3 | CC(=O)c1cccc(NC(=O)c2cccn(Cc3ccc(C)cc3)c2=O)c1 [CBK294427] | 101.125
4 | Cc1n[nH]c(-c2ccccc2NC(=O)Cc2sc(C)nc2-c2cccs2)n1 [CBK297737] | 108.925
5 | CCN(CC)C(=O)CN1CCC(Oc2nccnc2OCCN2CCOCC2)CC1 [CBK082928] | 116.121
6 | CC(C)(C)C(=O)N1CCCC(c2cc3cccnc3[nH]2)C1 (stereo not drawn) [CBK284945] | 93.3217
7 | COc1cc(/C=C/c2cc(C(F)(F)F)[nH]c(=O)n2)c(Cl)cc1O [CBK287936] | 102.224
8 | COc1ccccc1N1CCN(C(=O)CC2(CC(=O)O)CCCC2)CC1 [CBK296137] | 108.039
9 | Cc1cc(Cl)cc(Br)c1OCCN1CCN(C)CC1 [CBK269668C] | 133.078
10 | Cc1cc2ncn(CC(=O)NCc3ccccc3)c2cc1C [CBK200213] | 63.4125
11 | Cc1cc(C)n(C(C)CC(=O)N2CCCCC2CCN2CCCC2)n1 (stereo not drawn) [CBK282078] | 121.833
12 | CC(C)CNC(=O)N1CCN(CCN2CCOCC2)CC1 [CBK155826] | 107.478
13 | CC(=O)N1CCN(C(=O)C(C)S(=O)(=O)c2ccccc2F)CC1 (stereo not drawn) [CBK305603] | 138.466
14 | COc1ccc(-c2nnc(SCc3csc(Nc4ccccc4)n3)n2-c2ccccc2)cc1 [CBK265205] | 128.643
15 | c1ccc2c(c1)OCC(COc1nccc(N3CCCNCC3)n1)O2 (stereo not drawn) [CBK085471] | 96.2045
16 | FC(F)(F)c1ccnc(OCCc2c[nH]c3ccccc23)n1 [CBK116625] | 138.784
17 | COc1ccc(Cl)cc1N1CCN(Cc2ccc(C(C)C)cc2)CC1 [CBK126407] | 97.4664
18 | COC(=O)c1cccc(OCC(O)Cn2ccnc2)c1 (stereo not drawn) [CBK307408] | 99.9615
19 | CCOC(=O)C1CC1CN1CCCN(S(=O)(=O)c2ccc(C(=O)c3ccccc3)cc2)CC1 (stereo not drawn) [CBK063028] | 102.031
20 | Cc1ccc(-n2nc(-c3ccc(NC(=O)c4ccccc4)cc3)cc2NC(=O)c2ccccc2)cc1 [CBK261265] | 104.831
21 | O=C(c1ccco1)N1Cc2nc[nH]c2C[C@H]1c1nc(-c2ccc3ccccc3c2)no1 [CBK288965] | 109.197
22 | COc1ccc(C2(C(F)(F)F)NC(=O)N3CCN=C3S2)cc1 (stereo not drawn) [CBK019170] | 98.6773
23 | CC(C)=NNC(=O)CN(c1ccc(C)cc1)S(=O)(=O)c1ccccc1 [CBK262280] | 98.7553
24 | CC(Cc1cccs1)NC(=O)c1cc(C2CC2)on1 (stereo not drawn) [CBK283244] | 85.5957
25 | Cc1noc(C)c1NC(=O)N(Cc1ccccc1C(F)(F)F)C1CCC(N)CC1 (stereo not drawn) [CBK045963C] | 75.7963
26 | CC(Oc1ccccc1)C(=O)Nc1ccccc1-c1ccccc1 (stereo not drawn) [CBK264059] | 85.2176

Row | Compound | % of control remaining [%]
27 | CNC(C)Cc1ccccc1Sc1ccccc1 (stereo not drawn) [CBK027167G] | 159.622
28 | CCC(C)(CC(=O)O)CC(=O)N1CCC2(C1)NCCc1c2[nH]c2ccccc12 (stereo not drawn) [CBK047003] | 105.497
29 | COC(=O)NC(=S)Nc1ccc2c(c1)OCCO2 [CBK018644] | 124.442
30 | COc1ccc(CN2CCCc3ccccc32)cc1 [CBK126458] | 116.544
31 | CCN(CC)CCNC(=O)C1CCCCN1S(=O)(=O)c1ccc(C)cc1 (stereo not drawn) [CBK101088] | 97.9843
32 | O=C(Nc1ccccc1C(=O)O)c1ccccc1Cl [CBK287114] | 110.668
33 | Cc1nc2ccc(C(=O)N3CCCCC3)cn2c1N(C)C=O [CBK145480] | 98.0239
34 | CC(NCc1nc(=O)c2sccc2[nH]1)c1ccc2c(c1)OCCO2 (stereo not drawn) [CBK295157] | 142.968
35 | Cc1ccc(CNC(=O)c2ccc(-n3ccnc3)c(-n3cccc3)c2)o1 [CBK284812] | 128.55
36 | Cc1ccc(OCC(=O)Nc2ncn(Cc3cccnc3)n2)cc1 [CBK304888] | 114.178
37 | O=C(NCc1ccccc1)c1cnsn1 [CBK267302] | 147.367
38 | CCC1=C(C)C(=O)N(C(=O)NCCc2ccc(S(=O)(=O)NC(=O)NC3CCC(C)CC3)cc2)C1 (stereo not drawn) [CBK011561] | 113.089
39 | Cc1ncc(COP(=O)(O)O)c(/C=N/c2ccc3ccccc3c2)c1O [CBK261460] | 68.7248
40 | Cc1ccc(-c2nc3ccccc3s2)cc1NC(=O)c1sc2ccccc2c1Cl [CBK263865] | 145.44
41 | Cn1ncc2c(=O)n(Cc3noc(-c4ccsc4)n3)cnc21 [CBK305056] | 145.063
42 | CC(C)COC(=O)N1CCC(N(C)Cc2ccc(-c3ccc(S(C)(=O)=O)cc3)nc2)CC1 [CBK165259T] | 96.5572
43 | COC(=O)c1csc2c1N[C@H](C1CC3C=CC1C3)[C@@H]1CCO[C@H]21 (stereo partly drawn) [CBK303251] | 106.309
44 | COc1cc2c(cc1OC)C1c3ccccc3NC(c3ccccc3F)N1CC2 (stereo not drawn) [CBK286311] | 110.07
45 | COc1ccccc1C1(NC(=O)c2cnsc2)CCCC1 [CBK283643] | 117.604
46 | O=C1c2ccc(S(=O)(=O)c3ccc4c(c3)C(=O)N(c3nccs3)C4=O)cc2C(=O)N1c1nccs1 [CBK261335] | 105.216
47 | CC1=CCC2(CC1)COC(C(C)(C)CN(C)C)OC2 (stereo not drawn) [CBK011369] | 112.059
48 | Cc1noc(C)c1NC(=O)c1ccno1 [CBK200394] | 124.665
49 | O=S(=O)(/N=C(/c1ccc(Cl)cc1)N1CCOCC1)c1ccccc1 [CBK293950] | 133.067
50 | Cc1cc(NC(=O)CCN2CCCCC2)no1 [CBK017079] | 136.927
51 | O=C(NCc1cccs1)c1ccc2c(=O)n3c(nc2c1)CCN(Cc1ccccc1)CC3 [CBK286448] | 91.9802

Random excerpt: 4 entries already listed
Row | Compound | % of control remaining [%]
51 | O=C(NCc1cccs1)c1ccc2c(=O)n3c(nc2c1)CCN(Cc1ccccc1)CC3 [CBK286448] | 91.9802
39 | Cc1ncc(COP(=O)(O)O)c(/C=N/c2ccc3ccccc3c2)c1O [CBK261460] | 68.7248
45 | COc1ccccc1C1(NC(=O)c2cnsc2)CCCC1 [CBK283643] | 117.604
30 | COc1ccc(CN2CCCc3ccccc32)cc1 [CBK126458] | 116.544
